The experiment addresses T1, IKKα (UniProt O15111).
T1 sequence: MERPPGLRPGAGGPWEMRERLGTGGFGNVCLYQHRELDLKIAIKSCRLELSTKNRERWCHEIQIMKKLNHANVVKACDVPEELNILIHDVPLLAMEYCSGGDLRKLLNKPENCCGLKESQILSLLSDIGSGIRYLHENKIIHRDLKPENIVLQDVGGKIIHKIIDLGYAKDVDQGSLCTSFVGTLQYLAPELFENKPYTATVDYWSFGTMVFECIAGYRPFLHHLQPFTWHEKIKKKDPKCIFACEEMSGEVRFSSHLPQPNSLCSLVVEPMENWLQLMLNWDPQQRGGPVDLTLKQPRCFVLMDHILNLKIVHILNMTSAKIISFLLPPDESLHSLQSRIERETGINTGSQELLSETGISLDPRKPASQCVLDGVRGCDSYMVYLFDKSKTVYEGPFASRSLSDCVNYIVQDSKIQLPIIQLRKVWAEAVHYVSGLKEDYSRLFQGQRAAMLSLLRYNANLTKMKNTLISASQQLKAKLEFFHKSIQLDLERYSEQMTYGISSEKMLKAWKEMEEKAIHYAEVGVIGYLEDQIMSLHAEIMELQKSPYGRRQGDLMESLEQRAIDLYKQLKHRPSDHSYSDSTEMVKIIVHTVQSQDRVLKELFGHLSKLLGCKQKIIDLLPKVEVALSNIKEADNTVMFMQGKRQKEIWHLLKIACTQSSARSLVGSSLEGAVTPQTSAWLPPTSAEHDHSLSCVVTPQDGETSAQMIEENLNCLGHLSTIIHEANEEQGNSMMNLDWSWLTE
The experiment can be described thus: co-IP; co-IP of AXL with NF-κB signalling proteins (Figure S24A,B) and of AKT with IKKα (Figure S24D); cells not given.

These are yes or no findings as the source states them, for the method shown. In cells and extracts the contact can be indirect. Binding calls can cover weak binding; strength is not graded here.

Regarding AKT (enzyme), the binding entry is “binds”.

The record behind these values is paper PMC11714167.
